Drawing on US20240390459A1, “ANTI-DEPRESSION AND ANTI-ANXIETY APPLICATION OF POLYPEPTIDE AND COMPLEX” (SHENZHEN CHENYANG BIOLOGICAL TECHNOLOGY CO., LTD, priority 2021, published 2024), this text covers binding for three substances.

Protein sequences, listed by entry. Tags and fused reporters are not part of them. Lines headed by an entry give the natural chain unless they say otherwise; changes in a name come on top. Residues count along the entry.
UniProt Q61616: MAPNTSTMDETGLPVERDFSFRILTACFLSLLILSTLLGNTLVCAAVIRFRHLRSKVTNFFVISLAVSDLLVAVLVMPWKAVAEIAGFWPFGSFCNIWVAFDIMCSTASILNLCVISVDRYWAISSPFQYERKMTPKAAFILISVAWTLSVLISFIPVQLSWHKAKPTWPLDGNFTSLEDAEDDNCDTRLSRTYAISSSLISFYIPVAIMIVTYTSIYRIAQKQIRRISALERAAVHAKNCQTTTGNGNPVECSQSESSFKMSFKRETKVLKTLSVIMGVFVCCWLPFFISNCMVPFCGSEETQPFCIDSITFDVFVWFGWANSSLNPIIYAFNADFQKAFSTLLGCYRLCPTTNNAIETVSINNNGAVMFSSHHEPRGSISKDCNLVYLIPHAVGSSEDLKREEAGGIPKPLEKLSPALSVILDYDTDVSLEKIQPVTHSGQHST
UniProt P35363: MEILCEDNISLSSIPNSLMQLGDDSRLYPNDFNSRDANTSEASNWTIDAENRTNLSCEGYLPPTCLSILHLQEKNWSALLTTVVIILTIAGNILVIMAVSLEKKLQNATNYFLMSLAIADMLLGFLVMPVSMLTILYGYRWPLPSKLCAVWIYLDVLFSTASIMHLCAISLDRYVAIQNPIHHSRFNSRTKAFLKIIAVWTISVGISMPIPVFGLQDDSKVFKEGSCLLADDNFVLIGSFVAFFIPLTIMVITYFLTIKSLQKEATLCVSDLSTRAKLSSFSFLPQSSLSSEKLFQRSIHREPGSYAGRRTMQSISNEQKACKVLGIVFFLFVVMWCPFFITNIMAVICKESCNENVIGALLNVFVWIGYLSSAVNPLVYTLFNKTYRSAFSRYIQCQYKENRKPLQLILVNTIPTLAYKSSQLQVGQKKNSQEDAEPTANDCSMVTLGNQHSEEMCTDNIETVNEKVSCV
GST fusion protein containing the CT region of 5-HT2AR (GST-5HT2AR-CT) (P28223, residues 385-471): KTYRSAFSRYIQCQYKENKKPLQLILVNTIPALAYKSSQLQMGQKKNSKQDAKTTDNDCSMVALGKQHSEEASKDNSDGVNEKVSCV
GST fusion protein containing a DV region of 5-HT2AR (GST-5HT2AR-DV) (P28223, residues 442-471): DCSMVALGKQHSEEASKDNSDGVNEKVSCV

Results are given in words; binding and its absence hold for the method and conditions named. Binding seen in cells or lysates may run through a third protein. Some results given as binding are weak or reduced against the parent protein; the word gives no strength.

Experiment [1] addresses Dopamine D1 receptor (D1R), endogenous, from mouse hippocampus tissue (mouse) (UniProt Q61616). Description: co-immunoprecipitation from hippocampus of CRS, CMS and CSDS mouse models, Western blot. In general terms: A western blot detects proteins with antibodies after separation by electrophoresis.
For experiment [2] the target is unchanged. Description: co-immunoprecipitation from mouse hippocampus tissue with anti-5-HT2AR antibody, Western blot for D1R.
For experiment [3] the target is unchanged. Description: GST pulldown from mouse hippocampus extract, Western blot.

“5-HT2A receptor (5-HT2AR), endogenous, from mouse hippocampus tissue (from UniProt P35363 1-471)”: the binding result in experiment [1] and in experiment [2] was “binds” each time. On to “GST fusion protein containing a DV region of 5-HT2AR (GST-5HT2AR-DV) (from UniProt P28223 442-471)”, for which the binding result in experiment [3] was “binds”. In the case of “GST fusion protein containing the CT region of 5-HT2AR (GST-5HT2AR-CT) (from UniProt P28223 385-471)”, in experiment [3], the binding entry is listed as “binds”.
